Source: the supplement of paper PMC10849652
This is one part of the list.

The chains behind the UniProt entries cited, without tags or fusion partners. Where a name states a change or a piece, a line headed by the entry shows the natural chain unless it says otherwise.
UniProt Q9BQE4, whole entry, looked up: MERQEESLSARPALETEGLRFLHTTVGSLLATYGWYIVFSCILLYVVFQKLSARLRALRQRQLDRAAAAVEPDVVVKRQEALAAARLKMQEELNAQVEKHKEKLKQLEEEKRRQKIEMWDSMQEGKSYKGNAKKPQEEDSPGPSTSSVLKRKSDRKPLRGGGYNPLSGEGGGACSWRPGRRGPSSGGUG
UniProt O60239: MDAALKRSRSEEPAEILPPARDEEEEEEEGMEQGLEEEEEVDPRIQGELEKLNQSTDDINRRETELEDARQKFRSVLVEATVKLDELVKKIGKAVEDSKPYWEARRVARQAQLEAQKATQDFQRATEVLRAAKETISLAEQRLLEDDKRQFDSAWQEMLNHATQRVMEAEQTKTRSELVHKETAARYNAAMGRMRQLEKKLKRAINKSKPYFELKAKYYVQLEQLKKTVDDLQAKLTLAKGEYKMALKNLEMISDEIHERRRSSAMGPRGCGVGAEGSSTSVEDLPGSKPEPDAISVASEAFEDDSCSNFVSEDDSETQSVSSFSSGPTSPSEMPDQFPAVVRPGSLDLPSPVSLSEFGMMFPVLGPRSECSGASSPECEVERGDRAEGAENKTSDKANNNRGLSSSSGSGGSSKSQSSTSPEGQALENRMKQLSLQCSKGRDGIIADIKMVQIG
UniProt P62341, whole entry, looked up: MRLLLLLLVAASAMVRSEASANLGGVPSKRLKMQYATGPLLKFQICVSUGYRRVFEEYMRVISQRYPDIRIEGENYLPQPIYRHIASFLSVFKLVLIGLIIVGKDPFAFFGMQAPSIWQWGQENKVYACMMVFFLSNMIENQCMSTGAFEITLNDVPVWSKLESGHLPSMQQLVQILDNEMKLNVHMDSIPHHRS
UniProt P36955: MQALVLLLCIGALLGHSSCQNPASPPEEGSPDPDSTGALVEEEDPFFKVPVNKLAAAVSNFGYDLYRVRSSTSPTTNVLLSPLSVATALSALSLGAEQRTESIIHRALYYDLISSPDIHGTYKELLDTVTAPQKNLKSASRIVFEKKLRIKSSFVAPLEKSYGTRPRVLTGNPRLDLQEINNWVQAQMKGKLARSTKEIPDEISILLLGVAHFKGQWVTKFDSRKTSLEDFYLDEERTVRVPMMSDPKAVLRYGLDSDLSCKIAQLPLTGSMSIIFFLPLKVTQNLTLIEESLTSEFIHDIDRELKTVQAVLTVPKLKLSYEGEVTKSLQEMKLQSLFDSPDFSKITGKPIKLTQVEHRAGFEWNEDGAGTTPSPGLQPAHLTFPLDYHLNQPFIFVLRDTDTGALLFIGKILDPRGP
UniProt O43236: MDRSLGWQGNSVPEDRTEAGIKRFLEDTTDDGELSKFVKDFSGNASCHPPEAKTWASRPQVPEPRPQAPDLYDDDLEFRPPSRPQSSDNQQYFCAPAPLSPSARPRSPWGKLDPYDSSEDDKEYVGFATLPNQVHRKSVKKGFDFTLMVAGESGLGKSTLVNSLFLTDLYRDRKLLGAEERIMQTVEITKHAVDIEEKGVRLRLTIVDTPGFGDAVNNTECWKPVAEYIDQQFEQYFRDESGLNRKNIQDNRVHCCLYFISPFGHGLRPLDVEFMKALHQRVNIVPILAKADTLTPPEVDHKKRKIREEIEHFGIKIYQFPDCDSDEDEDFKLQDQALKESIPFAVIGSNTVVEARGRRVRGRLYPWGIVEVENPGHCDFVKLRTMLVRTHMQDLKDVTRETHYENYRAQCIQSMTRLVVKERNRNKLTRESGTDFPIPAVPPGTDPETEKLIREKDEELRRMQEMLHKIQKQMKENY
UniProt O75368: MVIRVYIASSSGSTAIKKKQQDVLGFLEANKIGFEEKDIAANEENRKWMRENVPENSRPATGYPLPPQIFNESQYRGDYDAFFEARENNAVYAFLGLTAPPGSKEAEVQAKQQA
UniProt Q5FBB7: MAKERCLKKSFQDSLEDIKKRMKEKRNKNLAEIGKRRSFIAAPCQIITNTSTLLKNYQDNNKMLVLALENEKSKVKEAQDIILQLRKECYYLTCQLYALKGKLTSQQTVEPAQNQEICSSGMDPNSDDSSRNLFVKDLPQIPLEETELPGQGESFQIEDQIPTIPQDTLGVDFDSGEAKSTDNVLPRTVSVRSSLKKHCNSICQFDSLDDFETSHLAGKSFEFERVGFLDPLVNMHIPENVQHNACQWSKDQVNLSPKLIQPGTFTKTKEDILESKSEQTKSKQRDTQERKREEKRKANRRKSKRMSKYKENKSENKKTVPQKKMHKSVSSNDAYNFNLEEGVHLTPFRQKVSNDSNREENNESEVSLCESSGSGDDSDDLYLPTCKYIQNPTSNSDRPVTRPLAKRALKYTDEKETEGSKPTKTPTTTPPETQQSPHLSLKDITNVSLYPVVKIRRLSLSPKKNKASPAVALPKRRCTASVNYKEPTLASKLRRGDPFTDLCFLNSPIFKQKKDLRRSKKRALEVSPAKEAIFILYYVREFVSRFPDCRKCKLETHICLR
UniProt Q86TU7: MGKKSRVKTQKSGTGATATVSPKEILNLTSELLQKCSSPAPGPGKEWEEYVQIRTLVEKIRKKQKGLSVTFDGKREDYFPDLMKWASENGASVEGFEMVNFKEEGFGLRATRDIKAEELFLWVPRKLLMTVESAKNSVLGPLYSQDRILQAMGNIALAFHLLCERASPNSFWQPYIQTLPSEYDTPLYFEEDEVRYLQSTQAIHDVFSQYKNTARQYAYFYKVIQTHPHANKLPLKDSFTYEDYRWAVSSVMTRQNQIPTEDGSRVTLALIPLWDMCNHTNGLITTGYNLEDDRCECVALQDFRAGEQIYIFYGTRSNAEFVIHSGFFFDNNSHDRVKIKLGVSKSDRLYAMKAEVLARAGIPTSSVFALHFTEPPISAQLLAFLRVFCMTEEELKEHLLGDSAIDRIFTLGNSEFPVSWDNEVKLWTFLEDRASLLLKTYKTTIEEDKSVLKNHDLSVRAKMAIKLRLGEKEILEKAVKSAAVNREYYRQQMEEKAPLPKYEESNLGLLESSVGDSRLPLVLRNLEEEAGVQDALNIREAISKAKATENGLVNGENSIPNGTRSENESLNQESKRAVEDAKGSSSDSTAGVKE
UniProt Q8NEM2: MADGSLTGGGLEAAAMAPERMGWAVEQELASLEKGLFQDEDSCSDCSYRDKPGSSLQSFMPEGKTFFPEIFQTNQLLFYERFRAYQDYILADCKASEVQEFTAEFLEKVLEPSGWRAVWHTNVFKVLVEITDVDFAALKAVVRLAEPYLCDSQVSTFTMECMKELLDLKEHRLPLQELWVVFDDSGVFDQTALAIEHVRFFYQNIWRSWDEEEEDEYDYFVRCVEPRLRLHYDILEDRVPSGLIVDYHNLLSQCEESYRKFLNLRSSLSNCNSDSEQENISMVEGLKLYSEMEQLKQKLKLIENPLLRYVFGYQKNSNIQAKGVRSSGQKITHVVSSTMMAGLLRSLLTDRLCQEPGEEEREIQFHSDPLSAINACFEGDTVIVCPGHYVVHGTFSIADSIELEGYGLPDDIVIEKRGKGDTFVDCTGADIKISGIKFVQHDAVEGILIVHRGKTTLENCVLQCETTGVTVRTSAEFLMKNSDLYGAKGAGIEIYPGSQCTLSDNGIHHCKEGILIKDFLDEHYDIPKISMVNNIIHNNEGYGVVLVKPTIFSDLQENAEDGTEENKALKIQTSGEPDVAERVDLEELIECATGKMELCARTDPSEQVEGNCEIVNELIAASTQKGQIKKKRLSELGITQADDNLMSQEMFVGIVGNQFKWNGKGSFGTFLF
UniProt Q86VZ5: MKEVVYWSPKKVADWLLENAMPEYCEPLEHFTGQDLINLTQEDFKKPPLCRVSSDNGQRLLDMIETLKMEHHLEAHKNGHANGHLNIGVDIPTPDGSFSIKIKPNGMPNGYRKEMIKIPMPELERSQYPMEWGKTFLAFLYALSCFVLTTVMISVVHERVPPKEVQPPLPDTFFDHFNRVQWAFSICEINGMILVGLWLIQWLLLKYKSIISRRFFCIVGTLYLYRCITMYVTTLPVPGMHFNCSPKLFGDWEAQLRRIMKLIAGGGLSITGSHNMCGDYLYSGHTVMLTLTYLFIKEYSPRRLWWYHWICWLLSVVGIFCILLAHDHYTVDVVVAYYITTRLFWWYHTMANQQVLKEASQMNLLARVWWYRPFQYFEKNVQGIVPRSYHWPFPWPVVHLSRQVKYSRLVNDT
UniProt Q01105, whole entry, looked up: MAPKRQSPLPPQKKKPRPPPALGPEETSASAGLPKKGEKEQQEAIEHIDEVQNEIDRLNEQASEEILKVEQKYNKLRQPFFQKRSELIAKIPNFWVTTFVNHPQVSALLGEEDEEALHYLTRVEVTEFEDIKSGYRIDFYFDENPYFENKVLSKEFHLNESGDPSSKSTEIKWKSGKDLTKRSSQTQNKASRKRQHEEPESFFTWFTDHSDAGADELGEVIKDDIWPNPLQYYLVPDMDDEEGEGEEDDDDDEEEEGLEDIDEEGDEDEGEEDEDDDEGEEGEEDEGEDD
UniProt Q9H299: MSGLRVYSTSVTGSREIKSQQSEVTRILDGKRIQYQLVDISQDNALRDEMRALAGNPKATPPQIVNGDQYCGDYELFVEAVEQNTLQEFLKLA
UniProt Q13530: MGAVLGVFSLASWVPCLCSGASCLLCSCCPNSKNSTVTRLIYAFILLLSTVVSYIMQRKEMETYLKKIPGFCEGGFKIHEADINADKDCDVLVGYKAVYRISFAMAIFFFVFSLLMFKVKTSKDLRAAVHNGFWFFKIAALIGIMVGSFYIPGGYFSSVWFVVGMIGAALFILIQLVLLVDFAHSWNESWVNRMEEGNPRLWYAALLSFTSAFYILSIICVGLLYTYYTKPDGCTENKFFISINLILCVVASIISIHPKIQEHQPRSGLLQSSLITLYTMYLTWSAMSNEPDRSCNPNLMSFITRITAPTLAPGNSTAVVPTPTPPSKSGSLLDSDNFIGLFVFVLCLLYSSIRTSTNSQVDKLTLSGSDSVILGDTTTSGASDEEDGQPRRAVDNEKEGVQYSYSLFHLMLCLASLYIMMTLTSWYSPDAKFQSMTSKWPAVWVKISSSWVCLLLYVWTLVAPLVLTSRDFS
UniProt Q99961: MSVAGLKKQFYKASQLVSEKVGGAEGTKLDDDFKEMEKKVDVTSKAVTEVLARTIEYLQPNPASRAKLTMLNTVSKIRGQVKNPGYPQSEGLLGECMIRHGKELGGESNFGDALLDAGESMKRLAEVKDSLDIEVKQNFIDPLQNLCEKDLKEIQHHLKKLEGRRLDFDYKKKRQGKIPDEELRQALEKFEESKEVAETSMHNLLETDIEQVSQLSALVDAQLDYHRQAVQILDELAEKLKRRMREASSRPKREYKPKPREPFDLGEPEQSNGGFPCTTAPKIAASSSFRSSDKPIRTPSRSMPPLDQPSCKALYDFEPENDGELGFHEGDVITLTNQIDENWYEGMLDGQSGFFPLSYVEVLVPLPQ
UniProt Q9UJC5: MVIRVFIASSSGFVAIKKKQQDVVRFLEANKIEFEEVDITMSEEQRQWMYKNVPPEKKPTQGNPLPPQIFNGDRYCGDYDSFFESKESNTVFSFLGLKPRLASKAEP
UniProt Q99442: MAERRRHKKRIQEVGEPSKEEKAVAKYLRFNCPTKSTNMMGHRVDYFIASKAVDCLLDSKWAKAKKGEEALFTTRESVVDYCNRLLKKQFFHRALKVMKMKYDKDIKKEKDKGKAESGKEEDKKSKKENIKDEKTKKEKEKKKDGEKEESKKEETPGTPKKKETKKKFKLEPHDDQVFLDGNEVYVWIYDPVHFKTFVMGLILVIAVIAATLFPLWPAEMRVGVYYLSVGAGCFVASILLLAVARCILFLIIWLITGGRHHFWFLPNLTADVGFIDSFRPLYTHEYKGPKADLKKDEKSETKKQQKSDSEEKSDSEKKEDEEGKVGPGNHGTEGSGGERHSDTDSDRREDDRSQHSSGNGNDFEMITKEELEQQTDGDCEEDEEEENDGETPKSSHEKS
UniProt Q9UGP8: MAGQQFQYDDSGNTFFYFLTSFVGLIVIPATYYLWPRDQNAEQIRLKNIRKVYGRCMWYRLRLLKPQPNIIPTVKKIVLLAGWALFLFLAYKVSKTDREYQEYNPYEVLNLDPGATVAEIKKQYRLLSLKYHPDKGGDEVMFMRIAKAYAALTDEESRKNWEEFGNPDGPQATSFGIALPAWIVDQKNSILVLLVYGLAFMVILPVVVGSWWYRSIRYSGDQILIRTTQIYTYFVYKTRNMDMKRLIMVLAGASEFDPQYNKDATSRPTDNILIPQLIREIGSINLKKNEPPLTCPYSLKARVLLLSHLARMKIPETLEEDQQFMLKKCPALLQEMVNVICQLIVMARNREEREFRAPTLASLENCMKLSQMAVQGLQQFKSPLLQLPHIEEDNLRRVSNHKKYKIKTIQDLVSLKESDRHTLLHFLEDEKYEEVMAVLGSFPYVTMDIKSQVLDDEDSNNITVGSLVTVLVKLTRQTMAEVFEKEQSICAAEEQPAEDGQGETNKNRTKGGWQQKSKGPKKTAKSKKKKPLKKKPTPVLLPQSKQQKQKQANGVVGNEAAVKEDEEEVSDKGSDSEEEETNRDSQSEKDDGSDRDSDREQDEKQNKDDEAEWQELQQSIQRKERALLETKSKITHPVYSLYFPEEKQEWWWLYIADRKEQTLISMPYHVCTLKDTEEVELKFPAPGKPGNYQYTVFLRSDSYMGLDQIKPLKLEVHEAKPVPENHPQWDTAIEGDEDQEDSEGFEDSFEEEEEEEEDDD

Tests used:
Assay in all cases: log2 fold change, soluble protein after heating vs DMSO (PISA); higher = thermal stabilisation; K562 cells, 10 uM, 30 min; active = over 0.2 and 3.5 SD of the protein, either way, in both replicates (recomputed)
erlotinib = compound: C#Cc1cccc(Nc2ncnc3cc(OCCOC)c(OCCOC)cc23)c1 [erlotinib]
How it was run: (§1)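 Soluble protein was defined as the supernatant after 21,000xg for 90 min. It came from K562 cells at 2×10^6 cells/mL given 10 μM compound for 30 min, heated in aliquots for 3 min across 48°C-58°C, pooled, and extracted in PBS with 0.5% NP-40 at 4°C, and was quantified by TMTpro 16plex LC-MS/MS with equalised channel sums. Thermal stability against control samples, from duplicates, is reported as log2 fold change.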

[1] = compound: C/C(=N\NC(=O)C1=CC(=CC=C1)S(=O)(=O)N2CCOCC2)/C3=C(C=CC(=C3)Cl)O
How it was run: as §1

[2] = compound: C1=CC(=C(C=C1Cl)C2=NC3=NC=CN=C3C(=N2)NC4=CC=NC=C4)F
How it was run: as §1

[3] = compound: C1=CC(=CC=C1C2=NC3=C(N2)C=C(C=C3)C(=O)N)OC4=CC=C(C=C4)Cl
How it was run: as §1

[4] = compound: C1=CC2=C(C=CC(=C2)/C=C\3/C(=O)NC(=NCC4=CC=CS4)S3)N=C1
How it was run: as §1

[5] = compound: C1=CC2=NC=CN=C2C=C1/C=C/3\C(=O)NC(=O)S3
How it was run: as §1

[6] = compound: C1=CC=C(C=C1)C2=NC(=C(N2)C3=CC=NC=C3)C4=CC(=C(C=C4)Cl)O
How it was run: as §1

[7] = compound: C1=CC=C2C(=C1)C3=NNC4=CC=CC(=C43)C2=O
How it was run: as §1

[8] = compound: C1CCN(C1)C(=O)NC2=CC=CC(=C2)NC3=NC=C(C(=N3)NCCC4=CN=CN4)Br
How it was run: as §1

[9] = compound: C1CN(CCC1(CC2=CC=C(C=C2)Cl)N)C3=NC=NC4=C3C=CN4
How it was run: as §1

Measured: log2 fold change

SELENOS (UniProt Q9BQE4)
inactive: erlotinib 0.011 | [1] 0.011 | [2] 0.033 | [3] 0.014 | [4] -0.029 | [5] 0.023 | [6] -0.043 | [7] -0.077 | [8] -0.057 | [9] 0.018

SH3BP5 (UniProt O60239)
inactive: erlotinib -0.032 | [1] 0 | [2] 0.083 | [3] -0.045 | [4] 0.052 | [5] 0.108 | [6] -0.031 | [7] -0.088 | [8] -0.005 | [9] 0.096

SELENOT (UniProt P62341)
inactive: erlotinib 0.007 | [1] 0.095 | [2] 0.045 | [3] 0.038 | [4] -0.034 | [5] 0.03 | [6] -0.038 | [7] -0.162 | [8] 0.023 | [9] 0.101

SERPINF1 (UniProt P36955)
inactive: erlotinib -0.069 | [1] -0.049 | [2] -0.033 | [3] -0.023 | [4] 0.051 | [5] -0.039 | [6] -0.009 | [7] -0.055 | [8] -0.113 | [9] 0.035

SEPTIN4 isoform 4 (UniProt O43236)
inactive: erlotinib 0.02 | [1] 0.168 | [2] 0.118 | [3] -0.028 | [4] -0.206 | [5] 0.091 | [6] 0.3 | [7] 0.126 | [8] -0.129 | [9] 0.125

SH3BGRL (UniProt O75368)
inactive: erlotinib 0.044 | [1] 0.033 | [2] 0.162 | [3] -0.01 | [4] 0.014 | [5] 0.009 | [6] 0.096 | [7] 0.034 | [8] -0.08 | [9] 0.03

SEMA4B (UniProt Q9NPR2)
inactive: erlotinib 0.101 | [1] -0.061 | [2] -0.049 | [3] 0.106 | [4] 0.164 | [5] 0.073 | [6] -0.188 | [7] -0.138 | [8] 0.168 | [9] 0.226

SGO1 (UniProt Q5FBB7)
inactive: erlotinib 0.028 | [1] -0.032 | [2] -0.073 | [3] -0.029 | [4] 0.011 | [5] 0.029 | [6] -0.044 | [7] -0.003 | [8] 0.007 | [9] 0.013

SETD3 (UniProt Q86TU7)
inactive: erlotinib 0.01 | [1] -0.007 | [2] 0.04 | [3] 0.009 | [4] 0.06 | [5] 0.002 | [6] 0.031 | [7] 0.004 | [8] -0.015 | [9] 0.044

SHCBP1 (UniProt Q8NEM2)
inactive: erlotinib -0.013 | [1] -0.029 | [2] -0.027 | [3] 0.018 | [4] 0.137 | [5] 0.028 | [6] -0.104 | [7] 0.054 | [8] 0.127 | [9] -0.128

SHMT2 (UniProt P34897)
inactive: erlotinib -0.002 | [1] 0.001 | [2] 0 | [3] -0.005 | [4] 0.016 | [5] 0.009 | [6] -0.038 | [7] -0.013 | [8] 0.02 | [9] 0.034

SGMS1 (UniProt Q86VZ5)
inactive: erlotinib 0.005 | [1] 0.06 | [2] 0.003 | [3] 0.043 | [4] -0.031 | [5] 0.014 | [6] 0.058 | [7] -0.045 | [8] -0.037 | [9] 0.049

SET isoform 2 (UniProt Q01105)
inactive: erlotinib 0.039 | [1] -0.007 | [2] -0.047 | [3] 0.002 | [4] -0.002 | [5] -0.013 | [6] -0.045 | [7] 0.022 | [8] -0.014 | [9] 0.041

SH3GLB1 isoform 2 (UniProt Q9Y371)
inactive: erlotinib 0.044 | [1] 0 | [2] -0.098 | [3] 0.006 | [4] -0.052 | [5] 0.048 | [6] -0.111 | [7] 0.024 | [8] 0.06 | [9] -0.037

SH3BGRL3 (UniProt Q9H299)
inactive: erlotinib -0.012 | [1] 0.037 | [2] 0.089 | [3] 0.02 | [4] 0.057 | [5] 0.015 | [6] -0.031 | [7] -0.022 | [8] -0.045 | [9] 0.021

SEC61A2 (UniProt Q9H9S3)
inactive: erlotinib -0.013 | [1] 0.015 | [2] 0.054 | [3] -0.023 | [4] -0.004 | [5] 0.059 | [6] -0.012 | [7] 0.009 | [8] 0.005 | [9] 0.07

SF3B2 (UniProt Q13435)
inactive: erlotinib 0.081 | [1] -0.015 | [2] -0.155 | [3] -0.024 | [4] -0.041 | [5] 0.035 | [6] -0.05 | [7] -0.002 | [8] -0.002 | [9] -0.097

SEPTIN11 isoform 2 (UniProt Q9NVA2)
inactive: erlotinib 0.036 | [1] -0.028 | [2] 0.017 | [3] 0.008 | [4] -0.02 | [5] -0.001 | [6] -0.035 | [7] 0.011 | [8] -0.018 | [9] 0.038

Two entries picked at random from the list so far, as already listed:
SH3BGRL3 (UniProt Q9H299)
inactive: erlotinib -0.012 | [1] 0.037 | [2] 0.089 | [3] 0.02 | [4] 0.057 | [5] 0.015 | [6] -0.031 | [7] -0.022 | [8] -0.045 | [9] 0.021

SF3B2 (UniProt Q13435)
inactive: erlotinib 0.081 | [1] -0.015 | [2] -0.155 | [3] -0.024 | [4] -0.041 | [5] 0.035 | [6] -0.05 | [7] -0.002 | [8] -0.002 | [9] -0.097

Later entries

SHC1 isoform 6 (UniProt P29353)
inactive: erlotinib 0.029 | [1] -0.006 | [2] -0.011 | [3] 0.012 | [4] 0.04 | [5] 0.012 | [6] 0.001 | [7] -0.034 | [8] -0.022 | [9] 0.003

SERINC3 (UniProt Q13530)
inactive: erlotinib -0.051 | [1] 0.016 | [2] -0.064 | [3] 0.041 | [4] -0.043 | [5] 0.063 | [6] 0.006 | [7] 0.029 | [8] 0.007 | [9] 0.06

SHKBP1 (UniProt Q8TBC3)
inactive: erlotinib 0.002 | [1] 0.044 | [2] 0.009 | [3] 0.027 | [4] 0.046 | [5] -0.022 | [6] 0.01 | [7] -0.035 | [8] 0.023 | [9] 0.018

SIL1 (UniProt Q9H173)
inactive: erlotinib -0.053 | [1] -0.107 | [2] -0.059 | [3] 0.039 | [4] 0.026 | [5] -0.008 | [6] 0.044 | [7] -0.011 | [8] 0.027 | [9] -0.022

SH3GL1 (UniProt Q99961)
inactive: erlotinib 0.024 | [1] 0.068 | [2] 0.013 | [3] 0.003 | [4] 0.058 | [5] 0.022 | [6] 0.019 | [7] 0.004 | [8] -0.047 | [9] -0.045

SH3BGRL2 (UniProt Q9UJC5)
inactive: erlotinib -0.093 | [1] 0.066 | [2] -0.031 | [3] -0.033 | [4] -0.006 | [5] -0.088 | [6] 0.105 | [7] 0.002 | [8] -0.035 | [9] -0.01

SEC62 (UniProt Q99442)
inactive: erlotinib 0.013 | [1] -0.026 | [2] 0.01 | [3] -0.012 | [4] -0.003 | [5] -0.026 | [6] 0.001 | [7] -0.06 | [8] -0.031 | [9] 0.006

SEC63 (UniProt Q9UGP8)
inactive: erlotinib -0.014 | [1] 0.004 | [2] 0.024 | [3] -0.002 | [4] 0.005 | [5] 0.027 | [6] -0.002 | [7] -0.001 | [8] 0.012 | [9] 0

SFXN1 (UniProt Q9H9B4)
inactive: erlotinib 0.017 | [1] 0.042 | [2] 0.095 | [3] -0.022 | [4] 0.003 | [5] 0.047 | [6] 0.064 | [7] -0.007 | [8] -0.038 | [9] 0.017

SETMAR (UniProt Q53H47)
inactive: erlotinib 0.004 | [1] -0.044 | [2] 0.046 | [3] -0.018 | [4] 0.133 | [5] -0.029 | [6] -0.01 | [7] 0.008 | [8] -0.031 | [9] -0.248

SEPHS1 (UniProt P49903)
inactive: erlotinib -0.035 | [1] 0.01 | [2] 0.092 | [3] 0 | [4] -0.005 | [5] 0.007 | [6] 0.004 | [7] 0.024 | [8] -0.041 | [9] 0.037
